{
  "source": "paper PMC6413339",
  "about": "(EBioMedicine, 2019)",
  "key": {"MV4–11 cells": {"system": "MV4–11 cells", "assay": "Antiproliferative activity (CellTitre-Blue, 72 h)", "format": "cell-based", "settings": "Homo sapiens, MV4-11, 72 h, 72 h incubation, triplicates; read-out: IC50 (mean ±SD, nM) MV4–11", "protocol": "(§1) Cells were seeded into 96-well tissue culture-treated plates at 2.0 × 10^4 cells/mL for up to 24 h. DMSO stock solutions of compounds were serially diluted first in DMSO and subsequently into RPMI before being added to the cell cultures in triplicates, with 10 μM being the highest tested concentration. The plates were incubated for 72 h as above. The CellTitre-Blue assay (Promega, Madison WI) was then added to the cultures and incubated a further 4 h before the fluorescence measured following the manufacturers recommendations. The fluorescence data from compounds were normalized to that DMSO and the resulting data fitted to a non-linear regression equation to obtain IC50 using GraphPad Prism 5.0 Software (La Jolla, CA, USA)."}, "[1]": {"system": "MOLM-14 (ITD, D835Y) cells", "assay": "Antiproliferative activity (CellTitre-Blue, 72 h)", "format": "cell-based", "settings": "Homo sapiens, MOLM-14, 72 h, 72 h incubation, triplicates; read-out: IC50 (mean ±SD, nM) MOLM-14 (ITD, D835Y)", "protocol": "as §1"}},
  "data": [
    {"smiles": "CO[C@@H]1[C@H](N(C)C(=O)c2ccccc2)C[C@H]2O[C@]1(C)n1c3ccccc3c3c4c(c5c6ccccc6n2c5c31)C(=O)NC4", "note": "[Midostaurin, reference compound]", "values": [
      {"measurement": "IC50", "setting": "MV4–11 cells", "result": "18.5 ± 2.4", "unit": "nM"},
      {"measurement": "IC50", "setting": "[1]", "result": "19.6 ± 0.3", "unit": "nM"}
    ]}
  ]
}
